Measurements reported in PubChem BioAssay AID488895 (Broad Institute, 2010).
Screen size: about 340,000 compounds; about 120 (0.035%) were called active. The source calls these results inconclusive, neither active nor inactive.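 The calls were made as follows: active = mean replicate inhibition at least 50% and at least half of replicates individually reaching 50%; inconclusive = only one of the two criteria met; inactive = neither criterion met.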

test: E. coli Tat export inhibitors, primary screen, MC4100, TorA-mCherry reporter, fluorescence, single point (AID 488895); details: at 10 µM, active compounds read high;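 also: exported cargo escapes ClpAP degradation while cytoplasmic cargo is degraded and loses fluorescence; 0% = median of neutral control wells and 100% = median of NaSCN control wells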

Row | SMILES | inhibition
1 | O=C(NCC1(N2CCCCC2)CCCCC1)c1ccc(F)cc1 | inconclusive: 21.7%
